# Laboratory results published in US20090220562A1, “Osteogenic and anti-adipogenic oxysterols” (priority 2005, published 2009).
# What was measured:
# Assay type in all cases: cell-based, mouse
# [1] = tested on: M2-10B4 marrow stromal cells; experiment: Alkaline phosphatase (ALP) activity assay on whole cell extracts of M2-10B4 marrow stromal cells; details: 22R+20S (RS); pretreatment with SC-560 10 μM, ACA 25 μM, AACOCF3 20 μM or PD98059 20 μM; 3 days
# Procedure: Cells: M2-10B4 mouse marrow stromal cell line obtained from American Type Culture Collection (ATCC, Rockville, Md., U.S.A.) was derived from bone marrow stromal cells of a (C57BL/6J x C3H/HeJ) Fl mouse, and support human and murine myelopoiesis in long-term cultures (as per ATCC) and have the ability to differentiate into osteoblastic and adipocytic cells. Unless specified, these cells were cultured in RPMI 1640 containing 10% heat-inactivated FBS, and supplemented with 1 mM sodium pyruvate, 100 U/ml penicillin, and 100 U/ml streptomycin (all from Irvine Scientific).
# Cells were always treated at 90% confluence. […]
# Next, a combination of 22R and 20S oxysterols (RS, 2.5 μM each) were added in the presence or absence of SC as indicated. After 3 days, ALP activity was measured as described earlier. […] (B) M2 cells were treated as described in (A) and after 10 days matrix mineralization in cultures was quantified by a ^45Ca incorporation assay as described earlier. […] After 8 days, total RNA was isolated and analyzed for osteocalcin (Osc) and […] expression by Northern blotting as previously described. […] After 3 days, ALP activity was measured as previously described. […] After 10 days, matrix mineralization in cultures was quantified using a ^45Ca incorporation assay as previously described. […]
# M2 cells = experiment: Inhibition of osteogenic differentiation of M2 cells by oxidative stress (XXO, MM-LDL): blocking, protection and rescue; details: SC-560 20 μM with SS 2.5 μM pretreatment
# Procedure: RNA Isolation and Northern Blot Analysis—Total RNA was isolated using the RNA isolation kit from Stratagene (La Jolla, Calif., USA). Northern blotting and analysis of osteocalcin mRNA and 18S rRNA expression was performed as previously described (23).
# After 14 days, matrix mineralization in cultures was quantified using a ^45Ca incorporation assay.
# marrow stromal cells = experiment: Osteogenic differentiation of marrow stromal cells (marker not specified: ALP activity, osteocalcin mRNA, mineral formation); details: 22R+20S and 22S+20S; SC-560 1-20 μM; NS-398 20 μM (highest non-toxic dose)
# Procedure: The purpose of the study was to identify other osteogenic and anti-adipogenic oxysterols based on the chemical structure of previously identified oxysterols. The ability of such candidate oxysterol molecules to induce the formation of osteoblastic cells in cultures of marrow stromal cells (which are progenitors of osteoblastic cells that make bone) were tested. In order to assess osteogenic differentiation of cells, one or more markers of osteogenic differentiation were measured in untreated cells and cells treated with the test oxysterols. These markers included: alkaline phosphatase activity, osteocalcin mRNA expression and mineral formation in cultures of marrow stromal cells. Activation of either one or more than one marker by a single or combination oxysterols is indicative of their osteogenic property.
smiles,measurement,setting,value
"COc1ccc(-n2nc(C(F)(F)F)cc2-c2ccc(Cl)cc2)cc1 [SC-560, reference compound]",effect on oxysterol-induced alkaline phosphatase activity,[1],inhibited
same,effect of COX-1 inhibitor on SS protection against XXO and MM-LDL (alkaline phosphatase activity),M2 cells,no longer protected
same,inhibition of the osteogenic effects of oxysterol combinations,marrow stromal cells,significantly inhibited
